The values below come from PMC9669019, “Molecular basis for integrin adhesion receptor binding to p21-activated kinase 4 (PAK4)” (Communications Biology, 2022).

This series concerns PAK4cat. Nature of the series: Isothermal titration calorimetry (Nano-ITC). It counts as binding, human.

As to “integrin β5 cytoplasmic tail: Recombinant His-tagged integrin β5 cytoplasmic tail, residues 743–799 (KLLVTIHDRREFAKFQSERSRARYEMASNPLYRKPISTHTVDFTFNKFNKSYNGTVD; left off: 6xHis, end not stated, kept)”, the “ΔS (ITC)” value is, setting by setting: (PBS pH 7.4, 25 °C, mean of runs) 73.25 ± 2.45 J/molK; (Supplementary Table 1, run 1) 75.7 J/molK; (Supplementary Table 1, run 2) 70.8 J/molK. Also, the “ΔH (ITC)” value was -1.84 kcal/mol (Supplementary Table 1, run 1) and -2.2 kcal/mol (Supplementary Table 1, run 2).
